PubChem BioAssay AID504834 (National Center for Advancing Translational Sciences (NCATS), 2011)
Hit rate of the full screen: of about 320,000 compounds, about 22,000 (6.9%) were called active. The shares of active, inactive and inconclusive entries below differ from those in the screen. Calls follow the shape of the dose curve; as a rule, active = well fitted inhibition curve with a large enough effect; inconclusive = small, poorly fitted or top-dose-only effect, or another doubt; inactive = no such curve, though single readings can be large or run the other way. Potencies beside an inconclusive call are fits to weak or partial responses and may not hold up.

Experiment: Primary qHTS for delayed death inhibitors of the malarial parasite plastid, 96 hour incubation
Settings: P. falciparum luciferase reporter growth; series mostly up to 28.7 µM
Summary of the method: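 Plates of compound plus infected erythrocytes (2% hematocrit, 0.05% parasitemia final) incubate 96 hours, 37 C, 5% CO2. Detection reagent added; reduced luminescence from the parasites' luciferase reporter flags inhibition.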
% is scaled to controls: 0 for no effect and ±100 for the full control effect; potency is read from the fitted curve at half-maximal effect.

Row | Structure (SMILES) | Potency | activity change, negative = inhibition
1 | CN(C)S(=O)(=O)c1cccc(NC(=S)NCCc2ccccn2)c1 | inactive | –
2 | O=C(Nc1c(C(=O)N2CCOCC2)oc2ccccc12)c1ccccc1Cl | inactive | –
3 | O=C(Cc1cccc(Cl)c1)Nc1ccc(Br)cc1 | inactive | –
4 | COCc1cc(C)nc(SCC(=O)Nc2ccc3c(c2)n(C)c(=O)n3C)c1C#N | inactive | –
5 | CC(C)OC(=O)c1ccc(N2CCN(c3ccc(F)cc3)CC2)nc1 | inconclusive: 13.1 µM [inhibitor, partial curve, poor fit] | –
6 | COc1ccc(-c2cc(C(=O)N3CCOCC3)c3ccccc3n2)cc1OC | inactive | –
7 | COc1ccc2oc(C(=O)OCC(=O)N(Cc3ccccc3)C(C)(C)C)c(C)c2c1 | inconclusive: 18.5 µM [inhibitor, single point] | –
8 | Cc1cc(NC(=O)c2ccc(COc3ccc(Cl)c(C)c3)o2)no1 | active: 9.28 µM | –
9 | CCCCc1nnc(NC(=O)c2ccc(S(=O)(=O)N3CCOCC3)cc2)s1 | inconclusive: 10.4 µM [inhibitor, single point] | –
10 | COc1ccc(NS(=O)(=O)c2cccc(C(=O)NCC(c3ccco3)N(C)C)c2)cc1 (stereo not drawn) | inconclusive: 20.8 µM [inhibitor, partial curve, poor fit] | –
11 | CN1C(=O)/C(=C/c2cc(C(C)(C)C)c(O)c(C(C)(C)C)c2)NC1=S | inconclusive: 13.1 µM [inhibitor, partial curve, poor fit] | –
12 | CCC(=O)NC(c1ccco1)c1cc(Cl)c2ccccc2c1O (stereo not drawn) | inconclusive: 16.5 µM [inhibitor, partial curve, poor fit] | –
13 | COc1ccccc1NC(=O)C(C)Sc1nccn1C (stereo not drawn) | inconclusive: 18.5 µM [inhibitor, single point] | –
14 | COCCN(Cc1nc(C(c2ccccc2)c2ccccc2)no1)C(C)C | inconclusive: 11.7 µM [inhibitor, single point] | –
15 | O=C(COc1ncnc2ccccc12)NCCc1ccccc1 | inactive | –
16 | CN(c1ccc(C(=O)N2CCN(c3ccc(F)cc3)CC2)cc1)S(C)(=O)=O | inconclusive: 10.4 µM [inhibitor, single point] | –
17 | CCN(CC(=O)NCc1ccc(Cl)cc1)C(=O)CSc1cccc(C(F)(F)F)c1 | inconclusive: 11.7 µM [inhibitor, single point] | –
18 | O=C(Nc1ccn(Cc2c(F)c(F)cc(F)c2F)n1)c1ccc(COc2ccc(Cl)cc2Cl)o1 | inconclusive: 18.5 µM [inhibitor, single point] | –
19 | O=c1[nH]c(SCCOc2ccccc2F)nc2ccccc12 | inconclusive: 10.4 µM [inhibitor, single point] | –
20 | O=C(O)CCCC(=O)Nc1ccc(OCc2nc3ccccc3s2)cc1 | inactive | –
21 | Cn1nc(C(=O)NNC(=O)CCc2ccccc2Cl)c2ccccc2c1=O | inconclusive: 10.4 µM [inhibitor, partial curve] | –
22 | CCc1c(C)nc2ncnn2c1N1CCCC(C(=O)NCCc2ccc(OC)cc2)C1 (stereo not drawn) | inactive | –
23 | C/C(=N/NC(=O)c1ccco1)c1ccc(NC(=O)c2ccc(F)cc2)cc1 | inactive | –
24 | COc1ccc(C2C(C(C)=O)=C(O)C(=O)N2c2cccnc2)c(OC)c1 (stereo not drawn) | inconclusive: 20.8 µM [inhibitor, partial curve, poor fit] | –
25 | COc1ccc(C(=O)Nc2ccc(C(=O)Nc3nccs3)cc2)cc1[N+](=O)[O-] | inactive | –

Records 4 to 24, quoted:
Row | Structure (SMILES) | Potency | activity change, negative = inhibition
4 | COCc1cc(C)nc(SCC(=O)Nc2ccc3c(c2)n(C)c(=O)n3C)c1C#N | inactive | –
5 | CC(C)OC(=O)c1ccc(N2CCN(c3ccc(F)cc3)CC2)nc1 | inconclusive: 13.1 µM [inhibitor, partial curve, poor fit] | –
6 | COc1ccc(-c2cc(C(=O)N3CCOCC3)c3ccccc3n2)cc1OC | inactive | –
7 | COc1ccc2oc(C(=O)OCC(=O)N(Cc3ccccc3)C(C)(C)C)c(C)c2c1 | inconclusive: 18.5 µM [inhibitor, single point] | –
8 | Cc1cc(NC(=O)c2ccc(COc3ccc(Cl)c(C)c3)o2)no1 | active: 9.28 µM | –
9 | CCCCc1nnc(NC(=O)c2ccc(S(=O)(=O)N3CCOCC3)cc2)s1 | inconclusive: 10.4 µM [inhibitor, single point] | –
10 | COc1ccc(NS(=O)(=O)c2cccc(C(=O)NCC(c3ccco3)N(C)C)c2)cc1 (stereo not drawn) | inconclusive: 20.8 µM [inhibitor, partial curve, poor fit] | –
11 | CN1C(=O)/C(=C/c2cc(C(C)(C)C)c(O)c(C(C)(C)C)c2)NC1=S | inconclusive: 13.1 µM [inhibitor, partial curve, poor fit] | –
12 | CCC(=O)NC(c1ccco1)c1cc(Cl)c2ccccc2c1O (stereo not drawn) | inconclusive: 16.5 µM [inhibitor, partial curve, poor fit] | –
13 | COc1ccccc1NC(=O)C(C)Sc1nccn1C (stereo not drawn) | inconclusive: 18.5 µM [inhibitor, single point] | –
14 | COCCN(Cc1nc(C(c2ccccc2)c2ccccc2)no1)C(C)C | inconclusive: 11.7 µM [inhibitor, single point] | –
15 | O=C(COc1ncnc2ccccc12)NCCc1ccccc1 | inactive | –
16 | CN(c1ccc(C(=O)N2CCN(c3ccc(F)cc3)CC2)cc1)S(C)(=O)=O | inconclusive: 10.4 µM [inhibitor, single point] | –
17 | CCN(CC(=O)NCc1ccc(Cl)cc1)C(=O)CSc1cccc(C(F)(F)F)c1 | inconclusive: 11.7 µM [inhibitor, single point] | –
18 | O=C(Nc1ccn(Cc2c(F)c(F)cc(F)c2F)n1)c1ccc(COc2ccc(Cl)cc2Cl)o1 | inconclusive: 18.5 µM [inhibitor, single point] | –
19 | O=c1[nH]c(SCCOc2ccccc2F)nc2ccccc12 | inconclusive: 10.4 µM [inhibitor, single point] | –
20 | O=C(O)CCCC(=O)Nc1ccc(OCc2nc3ccccc3s2)cc1 | inactive | –
21 | Cn1nc(C(=O)NNC(=O)CCc2ccccc2Cl)c2ccccc2c1=O | inconclusive: 10.4 µM [inhibitor, partial curve] | –
22 | CCc1c(C)nc2ncnn2c1N1CCCC(C(=O)NCCc2ccc(OC)cc2)C1 (stereo not drawn) | inactive | –
23 | C/C(=N/NC(=O)c1ccco1)c1ccc(NC(=O)c2ccc(F)cc2)cc1 | inactive | –
24 | COc1ccc(C2C(C(C)=O)=C(O)C(=O)N2c2cccnc2)c(OC)c1 (stereo not drawn) | inconclusive: 20.8 µM [inhibitor, partial curve, poor fit] | –

Next results.

Row | Structure (SMILES) | Potency | activity change, negative = inhibition
26 | COc1ccc(C(=O)Nc2ccccc2Cc2ccccc2)c(OC)c1 | inconclusive: 11.7 µM [inhibitor, single point] | –
27 | Cc1cc(F)ccc1NC(=O)C1CSC2(C)CCC(=O)N12 (stereo not drawn) | inactive | –
28 | CN(c1ccccc1)S(=O)(=O)c1ccc(C(=O)NCc2ccccc2CN2CCCC2)cc1 | inconclusive: 9.28 µM [inhibitor, single point] | –
29 | O=C(c1cc(F)c(F)cc1Cl)N1CCN(S(=O)(=O)c2cccs2)CC1 | inactive | –
30 | COc1ccc(-c2n[nH]c3c2C(c2ccc(OC)c(OC)c2)N(c2ccccc2)C3=O)cc1 (stereo not drawn) | active: 0.117 µM | –
31 | Cc1ccc(Nc2nc(CSc3nnnn3C)cs2)cc1 | inactive | –
32 | COc1ccc2oc(=O)c(C(=O)N3CCN(C(=O)c4ccco4)CC3)cc2c1 | inconclusive: 1.65 µM [inhibitor, full curve] | –
33 | O=C(Nc1ccc2ccccc2c1)c1ccc(Cl)cc1 | active: 5.22 µM | –
34 | COc1ccc(Cn2c(CCC(=O)NCCC(C)C)nc3ncccc3c2=O)cc1 | inactive | –
35 | Cc1cccc(-n2c(C)cc(/C=N/O)c2C)c1 | inconclusive: 9.28 µM [inhibitor, partial curve, poor fit] | –
36 | COc1ccc(CNC(=O)C(=O)NCC2CCCN2S(=O)(=O)c2ccccc2)cc1 (stereo not drawn) | inconclusive: 18.5 µM [inhibitor, single point] | –
37 | CCc1ccc(NCc2cc3c(C)nn(-c4ccccc4)c3[nH]c2=O)cc1 | inconclusive: 18.5 µM [inhibitor, single point] | –
38 | CN(CC(=O)NC1CC(C)(C)NC(C)(C)C1)S(=O)(=O)c1cc(Cl)ccc1Cl | – | inactive: 41.3% [at 5.75 µM]
39 | Cc1cc(F)ccc1NCc1ccc([N+](=O)[O-])cc1 | inconclusive: 0.0033 µM [inhibitor, full curve, poor fit] | –
40 | CCCN(C(=O)/C=C/c1ccco1)c1c(N)n(Cc2ccccc2)c(=O)[nH]c1=O | inactive | –
41 | O=C(CNC(=O)c1cccs1)NCC(=O)OCc1ccccc1Cl | inactive | –
42 | COCc1nc(-c2ccc(-c3ccc(OC)cc3)nc2OC)no1 | inconclusive: 4.15 µM [inhibitor, full curve, poor fit] | –
43 | O=C(CCSc1ccccc1)NC1CCCC1 | inactive | –
44 | CCCCCC(=O)Nc1cccc(C2=NOC3(C2)C[C@@H](C(N)=O)N(C(=O)CC(c2ccccc2)c2ccccc2)C3)c1 (stereo partly drawn) | inconclusive: 18.5 µM [inhibitor, single point] | –
45 | Cc1nc(NCc2ccc3c(c2)OCO3)c2nnn(Cc3ccccc3)c2n1 | active: 11.7 µM | –
46 | Cc1ccc(C#N)c(SCC(=O)Nc2nccs2)n1 | inactive | –
47 | COc1ccc(Cc2nc(-c3cccs3)no2)cc1OC | inactive | –
48 | COc1ccc(S(=O)(=O)N2CCOC2CNC(=O)C(=O)NCCc2ccc(S(N)(=O)=O)cc2)cc1 (stereo not drawn) | inconclusive: 2.94 µM [inhibitor, partial curve, poor fit] | –
49 | N#CCC(=O)Nn1c(=S)[nH]c2ccccc2c1=O | inconclusive: 4.65 µM [inhibitor, partial curve] | –
50 | CC(C)Oc1cccc(-c2cc(C(=O)NC(=S)N(C)c3ccccc3C(=O)O)c3ccccc3n2)c1 | inactive | –

Row | Structure (SMILES) | Potency | activity change, negative = inhibition
51 | O=S(=O)(NCC(c1cccs1)N1CCc2ccccc2C1)c1ccccc1 (stereo not drawn) | inactive | –
52 | CCC(=O)Nc1cccc(NC(=O)c2ccc(C)cc2Cl)c1 | inconclusive: 18.5 µM [inhibitor, single point] | –
53 | COc1cccc(-c2nc(C(=O)NCCCN3CCOCC3)cc3c2[nH]c2ccccc23)c1 | active: 8.28 µM | –
54 | c1ccc(N2CC[N+]3(CCCC3)CC2)nc1 | inactive | –
55 | C#CC[N+](C)(C)CCCCCCCCCCCC | active: 0.37 µM | –
56 | CC1Cc2ccccc2N1C(=S)NC(=O)c1cccc(Br)c1 (stereo not drawn) | inconclusive: 18.5 µM [inhibitor, single point] | –
57 | COc1ccccc1-n1c(-c2cc(-c3ccco3)[nH]n2)n[nH]c1=S | inactive | –
58 | CCc1ccc(/C=C2/C(=O)N(c3ccccc3)C(=S)N2CC(=O)OC)s1 | inconclusive: 18.5 µM [inhibitor, single point] | –
59 | O=C(C1CCCCN1S(=O)(=O)c1ccc(F)cc1)N1CCN(c2ccccc2F)CC1 (stereo not drawn) | active: 4.65 µM | –
60 | O=C1N(c2cccc(Cl)c2)C(c2ccc(Cl)cc2)N2CCCN12 (stereo not drawn) | inconclusive: 5.22 µM [inhibitor, partial curve] | –
61 | Cc1cc(OCC(=O)NCCc2cccc(F)c2)c2c(C)cc(=O)oc2c1 | inconclusive: 18.5 µM [inhibitor, single point] | –
62 | CCC(C)(C)NC(=O)CN(C(=O)CCC(=O)Nc1nccs1)c1ccc(C)cc1 | inconclusive: 18.5 µM [inhibitor, single point] | –
63 | CC(=O)c1c(C)[nH]c(C(=O)Nc2ccc(C)c(S(=O)(=O)Nc3ccc(C)cc3C)c2)c1C | inconclusive: 18.5 µM [inhibitor, single point] | –
64 | Cc1cccc(C)c1NC(=O)c1cccc2c1C(=O)N(C1CCCCC1)C2 | active: 11.7 µM | –
65 | Cc1c(Cl)c([N+](=O)[O-])nn1CCCC(=O)Nc1c(C)n(C)n(-c2ccccc2)c1=O | inactive | –
66 | CCNC(=O)CN1C(=O)NC(CCc2ccccc2)C1=O (stereo not drawn) | inconclusive: 2.33 µM [inhibitor, full curve, poor fit] | –
67 | O=C(Nc1cccc(S(=O)(=O)N2CCOCC2)c1)C1CCCCN1S(=O)(=O)c1ccccc1 (stereo not drawn) | inconclusive: 10.4 µM [inhibitor, partial curve] | –
68 | CN(C(=O)C1CCCO1)c1nnc(-c2ccccn2)s1 (stereo not drawn) | inactive | –
69 | CCOC(=O)c1c(C)[nH]c(C)c1S(=O)(=O)NCC(=O)Nc1ccccn1 | inactive | –
70 | CN(C)C(=O)c1nc2ccc(Cl)cn2c1CN1CCCC(OCc2cccnc2)C1 (stereo not drawn) | inconclusive: 2.33 µM [inhibitor, full curve] | –
71 | COc1cc(/C(C)=N/NC(=O)CSc2nncn2C)ccc1OCc1ccccc1Cl | inconclusive: 5.86 µM [inhibitor, partial curve] | –
72 | COc1cccc(C2CCCN2Cc2nc(CC3CC3)no2)c1 (stereo not drawn) | inconclusive: 8.28 µM [inhibitor, partial curve] | –
73 | CCCCn1c(=N)n(CC(O)COc2cccc(C)c2)c2ccccc21 (stereo not drawn) | inconclusive: 1.65 µM [inhibitor, full curve, poor fit] | –
